The other results are listed elsewhere or left out. Residues, ends and D or L forms follow the SMILES beside them. *: point of attachment. Cbz = O=C(OCc1ccccc1)*
Assays:
Test in all cases: log2 fold change, soluble protein after heating vs DMSO (PISA); higher = thermal stabilisation; K562 cells, 10 uM, 30 min; active = over 0.2 and 3.5 SD of the protein, either way, in both replicates (recomputed)
IRAK-1-4 Inhibitor I = compound: C1COCCN1CCN2C3=CC=CC=C3N=C2NC(=O)C4=CC(=CC=C4)[N+](=O)[O-] [IRAK-1-4 Inhibitor I]
Method in brief: (§1)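 Aliquots of K562 cells (2×10^6 cells/mL) treated with 10 μM compound for 30 min were heated for 3 min over 48°C-58°C. After pooling and extraction in PBS with 0.5% NP-40 at 4°C, soluble protein from a 21,000xg, 90 min spin was quantified by TMTpro 16plex LC-MS/MS with channel sums equalised. Thermal stability is expressed against control samples, from duplicates, as a log2 fold change.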

Protein sequences, listed by entry. Tags and fused reporters are not part of them. Lines headed by an entry give the natural chain unless they say otherwise; changes in a name come on top.
UniProt Q9BQE3, whole entry, looked up: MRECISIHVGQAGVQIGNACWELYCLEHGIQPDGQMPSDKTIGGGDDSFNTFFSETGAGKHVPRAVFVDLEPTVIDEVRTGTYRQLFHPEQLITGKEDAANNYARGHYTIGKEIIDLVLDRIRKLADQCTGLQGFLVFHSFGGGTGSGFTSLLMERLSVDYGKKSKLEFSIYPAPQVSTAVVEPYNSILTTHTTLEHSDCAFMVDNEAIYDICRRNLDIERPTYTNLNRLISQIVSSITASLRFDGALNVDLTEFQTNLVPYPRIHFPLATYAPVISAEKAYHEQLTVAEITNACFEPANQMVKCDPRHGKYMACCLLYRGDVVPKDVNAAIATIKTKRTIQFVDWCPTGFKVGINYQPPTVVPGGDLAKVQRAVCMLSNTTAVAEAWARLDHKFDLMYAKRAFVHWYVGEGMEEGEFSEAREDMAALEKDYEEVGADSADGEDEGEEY
UniProt Q969E8: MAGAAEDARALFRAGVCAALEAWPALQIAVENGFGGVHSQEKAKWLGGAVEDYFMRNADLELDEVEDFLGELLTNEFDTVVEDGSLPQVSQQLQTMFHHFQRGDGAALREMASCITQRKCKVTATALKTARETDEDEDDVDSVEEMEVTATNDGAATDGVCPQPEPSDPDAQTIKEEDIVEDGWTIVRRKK
UniProt P61081: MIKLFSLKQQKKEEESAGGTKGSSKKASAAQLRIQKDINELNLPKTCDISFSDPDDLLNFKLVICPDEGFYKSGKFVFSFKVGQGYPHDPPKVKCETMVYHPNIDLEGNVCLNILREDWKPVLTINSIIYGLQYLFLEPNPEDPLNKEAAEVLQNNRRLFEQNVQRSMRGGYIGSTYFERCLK
UniProt P49459, whole entry, looked up: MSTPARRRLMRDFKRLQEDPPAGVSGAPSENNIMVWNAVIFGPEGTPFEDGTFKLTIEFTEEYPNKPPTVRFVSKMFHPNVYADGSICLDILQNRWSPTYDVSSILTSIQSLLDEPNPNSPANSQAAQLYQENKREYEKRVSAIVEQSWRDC
UniProt Q13630: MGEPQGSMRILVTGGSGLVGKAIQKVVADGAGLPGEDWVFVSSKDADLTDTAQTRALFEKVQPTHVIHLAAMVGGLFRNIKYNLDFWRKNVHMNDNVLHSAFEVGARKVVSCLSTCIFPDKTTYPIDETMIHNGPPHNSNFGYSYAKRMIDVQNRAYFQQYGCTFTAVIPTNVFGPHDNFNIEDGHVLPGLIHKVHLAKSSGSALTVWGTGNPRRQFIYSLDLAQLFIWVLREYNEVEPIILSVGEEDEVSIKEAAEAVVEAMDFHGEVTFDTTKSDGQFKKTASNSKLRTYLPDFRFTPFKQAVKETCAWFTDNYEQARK
UniProt P61077: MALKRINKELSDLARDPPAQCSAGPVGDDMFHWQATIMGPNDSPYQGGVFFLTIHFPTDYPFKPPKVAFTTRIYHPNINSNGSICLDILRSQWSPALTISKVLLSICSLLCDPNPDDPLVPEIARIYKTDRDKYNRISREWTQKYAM
UniProt Q8N5M4: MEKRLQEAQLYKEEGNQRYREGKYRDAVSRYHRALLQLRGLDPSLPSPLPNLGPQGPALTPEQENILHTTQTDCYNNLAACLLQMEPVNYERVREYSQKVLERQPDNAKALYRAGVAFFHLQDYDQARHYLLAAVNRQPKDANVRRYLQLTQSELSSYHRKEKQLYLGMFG
UniProt P61086: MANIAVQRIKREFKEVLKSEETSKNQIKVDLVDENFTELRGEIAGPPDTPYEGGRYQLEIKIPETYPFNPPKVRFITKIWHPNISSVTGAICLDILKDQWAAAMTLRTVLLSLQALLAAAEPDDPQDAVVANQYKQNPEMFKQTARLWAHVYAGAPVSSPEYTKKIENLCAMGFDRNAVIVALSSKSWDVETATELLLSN
UniProt P51965: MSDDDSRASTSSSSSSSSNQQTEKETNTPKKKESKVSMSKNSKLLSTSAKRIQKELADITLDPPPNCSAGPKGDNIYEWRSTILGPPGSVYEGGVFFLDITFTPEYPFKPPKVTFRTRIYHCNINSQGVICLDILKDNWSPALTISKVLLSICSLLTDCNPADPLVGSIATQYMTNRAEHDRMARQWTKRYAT
UniProt Q9UBT2: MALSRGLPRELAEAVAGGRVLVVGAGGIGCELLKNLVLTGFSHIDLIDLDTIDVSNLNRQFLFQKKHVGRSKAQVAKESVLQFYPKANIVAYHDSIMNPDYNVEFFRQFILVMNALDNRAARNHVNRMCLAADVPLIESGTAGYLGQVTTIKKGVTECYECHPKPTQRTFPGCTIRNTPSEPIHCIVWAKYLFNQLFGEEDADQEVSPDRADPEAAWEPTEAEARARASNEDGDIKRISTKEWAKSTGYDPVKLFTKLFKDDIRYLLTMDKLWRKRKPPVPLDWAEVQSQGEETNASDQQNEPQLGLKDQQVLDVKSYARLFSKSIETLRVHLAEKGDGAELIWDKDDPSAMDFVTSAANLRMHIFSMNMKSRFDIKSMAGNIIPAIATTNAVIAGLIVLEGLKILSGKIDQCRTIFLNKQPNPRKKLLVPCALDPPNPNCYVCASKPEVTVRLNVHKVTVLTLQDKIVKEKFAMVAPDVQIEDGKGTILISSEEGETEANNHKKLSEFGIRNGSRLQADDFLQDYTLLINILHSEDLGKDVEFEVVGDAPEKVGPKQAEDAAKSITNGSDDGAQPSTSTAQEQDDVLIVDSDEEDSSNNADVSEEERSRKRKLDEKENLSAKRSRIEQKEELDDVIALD
UniProt P83876: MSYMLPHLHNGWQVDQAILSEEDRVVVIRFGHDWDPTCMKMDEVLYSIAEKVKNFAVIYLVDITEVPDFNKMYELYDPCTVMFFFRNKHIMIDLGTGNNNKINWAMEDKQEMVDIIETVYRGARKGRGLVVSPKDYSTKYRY
UniProt P10599: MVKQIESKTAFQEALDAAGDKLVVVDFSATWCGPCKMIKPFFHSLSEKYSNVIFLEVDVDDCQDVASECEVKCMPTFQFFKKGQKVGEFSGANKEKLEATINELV
UniProt P62256: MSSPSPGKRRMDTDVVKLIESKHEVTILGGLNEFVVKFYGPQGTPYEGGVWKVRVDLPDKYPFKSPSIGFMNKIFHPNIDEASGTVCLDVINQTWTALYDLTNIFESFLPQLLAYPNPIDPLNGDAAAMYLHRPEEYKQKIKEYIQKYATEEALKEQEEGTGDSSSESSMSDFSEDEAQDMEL
UniProt Q8NG11: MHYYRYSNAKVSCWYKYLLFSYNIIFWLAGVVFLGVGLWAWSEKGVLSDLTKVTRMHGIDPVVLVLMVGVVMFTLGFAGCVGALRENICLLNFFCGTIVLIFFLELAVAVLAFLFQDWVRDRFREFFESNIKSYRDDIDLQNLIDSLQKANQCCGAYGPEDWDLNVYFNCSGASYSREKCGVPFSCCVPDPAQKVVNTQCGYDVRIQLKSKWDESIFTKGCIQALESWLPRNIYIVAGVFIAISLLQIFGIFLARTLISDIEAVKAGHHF
UniProt P68371, whole entry, looked up: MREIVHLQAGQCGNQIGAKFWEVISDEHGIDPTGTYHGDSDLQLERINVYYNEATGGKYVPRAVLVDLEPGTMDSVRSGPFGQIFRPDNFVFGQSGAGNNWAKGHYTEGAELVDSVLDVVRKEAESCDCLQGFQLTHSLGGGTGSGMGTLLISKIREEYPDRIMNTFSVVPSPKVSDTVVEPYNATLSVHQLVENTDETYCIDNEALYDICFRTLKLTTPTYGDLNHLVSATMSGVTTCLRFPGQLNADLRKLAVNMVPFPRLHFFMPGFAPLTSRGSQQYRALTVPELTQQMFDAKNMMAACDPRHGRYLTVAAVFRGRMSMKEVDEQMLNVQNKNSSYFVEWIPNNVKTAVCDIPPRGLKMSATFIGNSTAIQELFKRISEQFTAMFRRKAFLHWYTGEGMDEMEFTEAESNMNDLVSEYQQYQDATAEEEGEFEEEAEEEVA
UniProt Q9H832: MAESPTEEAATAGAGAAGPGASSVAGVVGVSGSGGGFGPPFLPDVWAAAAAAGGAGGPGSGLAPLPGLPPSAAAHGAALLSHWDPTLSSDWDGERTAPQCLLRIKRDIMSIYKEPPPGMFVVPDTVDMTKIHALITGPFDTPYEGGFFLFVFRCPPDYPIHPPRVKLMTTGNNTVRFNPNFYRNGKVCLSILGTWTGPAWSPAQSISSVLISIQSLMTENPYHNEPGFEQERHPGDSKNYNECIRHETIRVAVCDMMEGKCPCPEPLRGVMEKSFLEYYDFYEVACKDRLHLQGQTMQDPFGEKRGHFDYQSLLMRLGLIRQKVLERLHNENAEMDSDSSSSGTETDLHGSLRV
UniProt P04818: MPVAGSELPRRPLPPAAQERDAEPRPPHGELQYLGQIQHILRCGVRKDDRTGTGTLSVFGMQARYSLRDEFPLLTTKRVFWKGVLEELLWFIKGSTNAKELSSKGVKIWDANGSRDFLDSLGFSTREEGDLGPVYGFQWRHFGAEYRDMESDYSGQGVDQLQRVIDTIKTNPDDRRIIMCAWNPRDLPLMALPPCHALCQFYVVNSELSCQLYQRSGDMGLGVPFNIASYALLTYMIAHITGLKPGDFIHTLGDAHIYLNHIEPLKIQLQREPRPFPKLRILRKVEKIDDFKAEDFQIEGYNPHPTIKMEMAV
UniProt Q9BSL1: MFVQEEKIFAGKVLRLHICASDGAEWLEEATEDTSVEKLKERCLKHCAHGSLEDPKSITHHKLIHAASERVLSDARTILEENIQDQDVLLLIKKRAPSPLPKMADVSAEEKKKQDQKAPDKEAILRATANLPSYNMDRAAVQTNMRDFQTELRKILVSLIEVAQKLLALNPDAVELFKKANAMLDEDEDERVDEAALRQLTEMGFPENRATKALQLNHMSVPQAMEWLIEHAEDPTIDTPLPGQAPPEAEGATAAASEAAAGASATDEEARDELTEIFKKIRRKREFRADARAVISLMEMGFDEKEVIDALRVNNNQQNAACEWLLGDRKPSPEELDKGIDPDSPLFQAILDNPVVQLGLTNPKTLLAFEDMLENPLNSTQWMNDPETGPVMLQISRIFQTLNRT
UniProt Q9NPD8: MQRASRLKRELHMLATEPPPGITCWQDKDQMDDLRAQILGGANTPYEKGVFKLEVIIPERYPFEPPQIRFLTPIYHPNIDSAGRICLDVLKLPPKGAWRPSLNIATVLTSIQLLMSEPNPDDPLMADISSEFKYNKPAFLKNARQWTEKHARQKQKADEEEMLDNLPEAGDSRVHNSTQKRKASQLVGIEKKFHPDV
UniProt Q6DKK2: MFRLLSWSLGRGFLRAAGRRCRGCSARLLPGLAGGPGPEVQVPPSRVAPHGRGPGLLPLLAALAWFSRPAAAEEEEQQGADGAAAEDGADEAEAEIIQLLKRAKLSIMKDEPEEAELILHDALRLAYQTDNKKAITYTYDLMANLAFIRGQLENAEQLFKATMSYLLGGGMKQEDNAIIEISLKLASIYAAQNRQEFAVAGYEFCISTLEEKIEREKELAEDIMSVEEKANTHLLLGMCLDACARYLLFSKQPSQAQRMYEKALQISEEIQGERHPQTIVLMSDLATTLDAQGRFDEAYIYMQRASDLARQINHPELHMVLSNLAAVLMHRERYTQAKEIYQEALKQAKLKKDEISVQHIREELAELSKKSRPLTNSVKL
UniProt Q6PID6, whole entry, looked up: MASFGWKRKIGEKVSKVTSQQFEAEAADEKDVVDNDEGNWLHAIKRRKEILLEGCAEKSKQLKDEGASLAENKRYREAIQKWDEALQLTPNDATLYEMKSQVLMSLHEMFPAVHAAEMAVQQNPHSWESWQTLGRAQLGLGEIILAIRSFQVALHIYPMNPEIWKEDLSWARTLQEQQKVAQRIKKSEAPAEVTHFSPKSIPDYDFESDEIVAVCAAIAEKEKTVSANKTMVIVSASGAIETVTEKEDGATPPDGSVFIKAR
UniProt Q5BVD1: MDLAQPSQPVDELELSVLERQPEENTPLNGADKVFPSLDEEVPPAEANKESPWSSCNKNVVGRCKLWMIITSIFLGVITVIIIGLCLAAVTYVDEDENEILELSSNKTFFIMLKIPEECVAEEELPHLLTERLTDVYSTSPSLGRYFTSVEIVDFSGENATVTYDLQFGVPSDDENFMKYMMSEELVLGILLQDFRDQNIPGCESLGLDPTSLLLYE
UniProt P07437, whole entry, looked up: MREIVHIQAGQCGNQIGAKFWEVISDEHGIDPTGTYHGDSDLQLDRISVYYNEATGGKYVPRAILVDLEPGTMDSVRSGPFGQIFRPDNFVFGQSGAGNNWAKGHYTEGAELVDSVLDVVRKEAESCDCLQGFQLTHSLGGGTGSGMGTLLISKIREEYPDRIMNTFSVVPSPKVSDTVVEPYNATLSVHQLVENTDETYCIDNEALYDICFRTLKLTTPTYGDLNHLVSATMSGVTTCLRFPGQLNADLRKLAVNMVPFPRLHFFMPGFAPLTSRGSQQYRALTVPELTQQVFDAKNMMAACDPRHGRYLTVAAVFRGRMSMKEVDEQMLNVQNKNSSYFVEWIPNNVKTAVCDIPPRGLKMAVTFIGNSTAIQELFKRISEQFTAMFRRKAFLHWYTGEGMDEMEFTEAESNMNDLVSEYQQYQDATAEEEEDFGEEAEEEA
UniProt Q9GZX9: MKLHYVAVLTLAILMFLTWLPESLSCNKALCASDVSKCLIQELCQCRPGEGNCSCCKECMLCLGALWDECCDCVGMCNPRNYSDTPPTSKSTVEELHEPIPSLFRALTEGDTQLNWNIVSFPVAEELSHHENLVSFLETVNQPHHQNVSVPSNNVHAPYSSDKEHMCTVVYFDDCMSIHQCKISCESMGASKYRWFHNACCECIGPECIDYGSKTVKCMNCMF

ibrutinib = compound: C=CC(=O)N1CCC[C@@H](n2nc(-c3ccc(Oc4ccccc4)cc3)c3c(N)ncnc32)C1 [ibrutinib]
Method in brief: as §1

[1] = compound: CC(=O)c1cnc2ccc(-c3cc(Cl)c(O)c(Cl)c3)nc2c1N[C@H]1CC[C@H](CN(C)C)CC1
Method in brief: as §1

ralimetinib = compound: CC(C)(C)Cn1c(N)nc2ccc(-c3[nH]c(C(C)(C)C)nc3-c3ccc(F)cc3)nc21 [ralimetinib]
Method in brief: as §1

[2] = compound: CC(C)(O)CC(=O)NCCn1ccc2ncnc(Nc3ccc(Oc4cccc(C(F)(F)F)c4)c(Cl)c3)c21
Method in brief: as §1

[3] = compound: CC(C)C1=C2N=C(C=C(N2N=C1)NCC3=CC=CC=C3)NCCCCCCN
Method in brief: as §1

[4] = compound: CC(C)C[C@@H](C=O)NC(=O)[C@H](CC(C)C)NC(=O)[C@H](CC(C)C)NC(=O)OCc1ccccc1
Method in brief: as §1

pinometostat = compound: CC(C)N(C[C@H]1O[C@@H](n2cnc3c(N)ncnc32)[C@H](O)[C@@H]1O)[C@H]1C[C@@H](CCc2nc3cc(C(C)(C)C)ccc3[nH]2)C1 [pinometostat]
Method in brief: as §1

[5] = compound: CC1=C(C(CC(=O)N1)C2=CC=C(C=C2)C(F)(F)F)C(=O)NC3=C(C=C4C(=C3)C=NN4)F
Method in brief: as §1

[6] = compound: CC1=C(C2=C(C=C1)C(=O)C3=CC=CC=C3N2CCCN)C
Method in brief: as §1

Measured: log2 fold change

TUBA1C (UniProt Q9BQE3)
inactive: IRAK-1-4 Inhibitor I 0.038 | ibrutinib 0.058 | [1] 0.016 | ralimetinib -0.003 | [2] -0.024 | [3] 0.038 | [4] -0.022 | pinometostat -0.005 | [5] 0.028 | [6] 0.043

TSR2 (UniProt Q969E8)
inactive: IRAK-1-4 Inhibitor I 0.091 | ibrutinib 0.019 | [1] -0.052 | ralimetinib 0.056 | [2] 0.025 | [3] -0.045 | [4] -0.163 | pinometostat -0.103 | [5] 0.014 | [6] -0.109

TTPAL (UniProt Q9BTX7)
inactive: IRAK-1-4 Inhibitor I -0.023 | ibrutinib 0.076 | [1] -0.044 | ralimetinib -0.102 | [2] 0.005 | [3] 0.031 | [4] -0.015 | pinometostat 0.014 | [5] -0.01 | [6] 0.072

UBE2M (UniProt P61081)
inactive: IRAK-1-4 Inhibitor I 0.038 | ibrutinib 0.002 | [1] -0.019 | ralimetinib -0.025 | [2] -0.048 | [3] -0.097 | [4] -0.013 | pinometostat -0.031 | [5] -0.007 | [6] 0.049

UBE2A (UniProt P49459)
inactive: IRAK-1-4 Inhibitor I 0.003 | ibrutinib 0.02 | [1] 0.037 | ralimetinib -0.01 | [2] -0.041 | [3] 0.009 | [4] 0.009 | pinometostat 0.018 | [5] -0.023 | [6] 0.044

TSTA3 (UniProt Q13630)
inactive: IRAK-1-4 Inhibitor I 0.008 | ibrutinib 0.022 | [1] -0.01 | ralimetinib -0.026 | [2] -0.044 | [3] 0.074 | [4] -0.006 | pinometostat -0.02 | [5] 0.039 | [6] 0.005

TWF1 (UniProt Q12792)
inactive: IRAK-1-4 Inhibitor I -0.065 | ibrutinib -0.055 | [1] 0.027 | ralimetinib -0.019 | [2] -0.034 | [3] -0.012 | [4] -0.095 | pinometostat 0.002 | [5] -0.085 | [6] 0.042

UBE2D3 isoform 3 (UniProt P61077)
inactive: IRAK-1-4 Inhibitor I 0.093 | ibrutinib -0.024 | [1] -0.01 | ralimetinib 0.016 | [2] -0.027 | [3] -0.022 | [4] 0.083 | pinometostat 0.011 | [5] 0.007 | [6] -0.047

TTC9C (UniProt Q8N5M4)
inactive: IRAK-1-4 Inhibitor I 0.041 | ibrutinib 0.031 | [1] -0.011 | ralimetinib 0.031 | [2] -0.06 | [3] -0.017 | [4] -0.032 | pinometostat -0.025 | [5] -0.013 | [6] 0.103

UBE2K (UniProt P61086)
inactive: IRAK-1-4 Inhibitor I 0.043 | ibrutinib 0.033 | [1] 0.056 | ralimetinib 0.067 | [2] -0.066 | [3] -0.001 | [4] -0.145 | pinometostat -0.099 | [5] 0.014 | [6] -0.008

UBE2E1 (UniProt P51965)
inactive: IRAK-1-4 Inhibitor I 0.019 | ibrutinib 0.005 | [1] -0.047 | ralimetinib 0.14 | [2] -0.118 | [3] -0.176 | [4] -0.242 | pinometostat -0.024 | [5] -0.124 | [6] 0.175

UBA2 (UniProt Q9UBT2)
inactive: IRAK-1-4 Inhibitor I 0.012 | ibrutinib -0.026 | [1] 0.076 | ralimetinib -0.024 | [2] -0.031 | [3] 0.042 | [4] -0.04 | pinometostat -0.034 | [5] -0.044 | [6] -0.025

TXNL4A (UniProt P83876)
inactive: IRAK-1-4 Inhibitor I 0.032 | ibrutinib 0.024 | [1] -0.028 | ralimetinib -0.018 | [2] -0.074 | [3] -0.072 | [4] 0.011 | pinometostat 0.006 | [5] -0.004 | [6] -0.004

Fetched one by one from the list above (two):
UBE2E1 (UniProt P51965)
inactive: IRAK-1-4 Inhibitor I 0.019 | ibrutinib 0.005 | [1] -0.047 | ralimetinib 0.14 | [2] -0.118 | [3] -0.176 | [4] -0.242 | pinometostat -0.024 | [5] -0.124 | [6] 0.175

TTC9C (UniProt Q8N5M4)
inactive: IRAK-1-4 Inhibitor I 0.041 | ibrutinib 0.031 | [1] -0.011 | ralimetinib 0.031 | [2] -0.06 | [3] -0.017 | [4] -0.032 | pinometostat -0.025 | [5] -0.013 | [6] 0.103

Following part:

TXN (UniProt P10599)
inactive: IRAK-1-4 Inhibitor I 0.044 | ibrutinib -0.034 | [1] 0.006 | ralimetinib -0.044 | [2] 0.065 | [3] 0.14 | [4] 0.013 | pinometostat -0.031 | [5] 0.015 | [6] -0.06

UBE2H (UniProt P62256)
inactive: IRAK-1-4 Inhibitor I 0.02 | ibrutinib -0.05 | [1] -0.05 | ralimetinib -0.1 | [2] -0.044 | [3] -0.032 | [4] -0.018 | pinometostat -0.049 | [5] -0.045 | [6] -0.052

TSPAN14 (UniProt Q8NG11)
inactive: IRAK-1-4 Inhibitor I 0.028 | ibrutinib 0.007 | [1] -0.032 | ralimetinib -0.117 | [2] -0.037 | [3] 0.01 | [4] 0.007 | pinometostat -0.028 | [5] 0.012 | [6] 0.049

TUBB4B (UniProt P68371)
inactive: IRAK-1-4 Inhibitor I 0.077 | ibrutinib 0.045 | [1] 0.002 | ralimetinib -0.035 | [2] -0.062 | [3] 0.007 | [4] -0.011 | pinometostat -0.025 | [5] -0.003 | [6] 0.01

UBE2Z (UniProt Q9H832)
inactive: IRAK-1-4 Inhibitor I 0.058 | ibrutinib 0 | [1] 0.016 | ralimetinib -0.053 | [2] -0.028 | [3] 0.019 | [4] 0.053 | pinometostat -0.022 | [5] 0.01 | [6] -0.018

TYMS (UniProt P04818)
inactive: IRAK-1-4 Inhibitor I -0.021 | ibrutinib -0.017 | [1] -0.031 | ralimetinib -0.001 | [2] -0.054 | [3] -0.033 | [4] 0.052 | pinometostat 0.031 | [5] 0.005 | [6] 0.048

UBAC1 (UniProt Q9BSL1)
inactive: IRAK-1-4 Inhibitor I 0 | ibrutinib -0.026 | [1] 0.024 | ralimetinib 0.011 | [2] -0.033 | [3] -0.108 | [4] 0.036 | pinometostat -0.024 | [5] 0.005 | [6] -0.086

UBE2T (UniProt Q9NPD8)
inactive: IRAK-1-4 Inhibitor I -0.036 | ibrutinib -0.025 | [1] 0.03 | ralimetinib 0.021 | [2] -0.094 | [3] -0.068 | [4] 0.045 | pinometostat -0.008 | [5] -0.032 | [6] 0.07

TTC19 (UniProt Q6DKK2)
inactive: IRAK-1-4 Inhibitor I 0.051 | ibrutinib -0.014 | [1] 0.012 | ralimetinib -0.027 | [2] 0.037 | [3] -0.142 | [4] 0.007 | pinometostat -0.025 | [5] 0.017 | [6] 0.024

TTC33 (UniProt Q6PID6)
inactive: IRAK-1-4 Inhibitor I 0.059 | ibrutinib 0.058 | [1] -0.121 | ralimetinib 0.009 | [2] -0.023 | [3] -0.075 | [4] 0.139 | pinometostat 0.111

TTMP isoform 3 (UniProt Q5BVD1)
inactive: IRAK-1-4 Inhibitor I 0.083 | ibrutinib 0.015 | [1] 0.012 | ralimetinib 0.182 | [2] -0.077 | [3] 0.083 | [4] 0.042 | pinometostat 0.01 | [5] -0.111 | [6] 0.196

TTC17 (UniProt Q96AE7)
inactive: IRAK-1-4 Inhibitor I -0.005 | ibrutinib -0.008 | [1] 0.092 | ralimetinib -0.157 | [2] 0.161 | [3] 0.016 | [4] -0.061 | pinometostat -0.049 | [5] 0.053 | [6] -0.056

TUBB (UniProt P07437)
inactive: IRAK-1-4 Inhibitor I 0.057 | ibrutinib 0.043 | [1] -0.035 | ralimetinib -0.011 | [2] -0.002 | [3] -0.01 | [4] -0.009 | pinometostat -0.024 | [5] -0.027 | [6] 0.031

TWSG1 (UniProt Q9GZX9)
inactive: IRAK-1-4 Inhibitor I 0.066 | ibrutinib 0.026 | [1] -0.017 | ralimetinib 0.038 | [2] -0.025 | [3] -0.003 | [4] -0.032 | pinometostat 0.014 | [5] 0.044 | [6] 0.026

— the supplement of paper PMC10849652
